Some entries share one result that the patent states for a list of compounds.
What was measured:
[1] = target: T1, human ERβ ligand binding domain (Homo sapiens, UniProt Q92731); assay: Binding assays 1 and 2: estrogen receptor binding assay (SPA with 3H-E2; LanthaScreen TR-FRET competitive binding); settings: in the binding assays 1 and 2
T1 construct: ERβ (ERβ-LBD, pET-N-AT #1, aa 255-530); biotinylation tag (biotinylated in vivo, pBirA); made in house; host or cells: E. coli BL21 (DE3) pBirA; crude extract supernatant

The chains behind the UniProt entries cited, without tags or fusion partners. Residues count along the entry.
UniProt Q92731, 255-530: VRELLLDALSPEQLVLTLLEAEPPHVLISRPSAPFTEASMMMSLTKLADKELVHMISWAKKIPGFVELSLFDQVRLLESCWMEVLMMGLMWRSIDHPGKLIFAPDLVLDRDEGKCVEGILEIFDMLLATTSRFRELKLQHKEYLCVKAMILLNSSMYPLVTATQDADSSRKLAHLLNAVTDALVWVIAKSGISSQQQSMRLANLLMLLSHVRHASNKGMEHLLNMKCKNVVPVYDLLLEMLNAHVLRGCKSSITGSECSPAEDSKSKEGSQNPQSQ
UniProt Q92731, whole entry: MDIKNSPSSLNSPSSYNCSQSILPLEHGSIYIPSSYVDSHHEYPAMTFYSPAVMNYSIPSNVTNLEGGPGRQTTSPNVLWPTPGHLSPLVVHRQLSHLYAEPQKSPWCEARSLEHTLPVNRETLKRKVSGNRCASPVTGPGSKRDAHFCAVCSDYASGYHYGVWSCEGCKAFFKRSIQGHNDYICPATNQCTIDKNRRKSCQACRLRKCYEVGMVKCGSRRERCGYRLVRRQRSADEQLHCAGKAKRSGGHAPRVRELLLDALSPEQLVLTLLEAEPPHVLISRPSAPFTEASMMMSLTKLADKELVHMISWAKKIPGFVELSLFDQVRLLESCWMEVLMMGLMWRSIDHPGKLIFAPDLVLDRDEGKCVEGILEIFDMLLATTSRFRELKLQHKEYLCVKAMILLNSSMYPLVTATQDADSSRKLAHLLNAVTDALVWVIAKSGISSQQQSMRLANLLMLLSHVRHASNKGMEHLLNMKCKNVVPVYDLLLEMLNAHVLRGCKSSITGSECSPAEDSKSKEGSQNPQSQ

[2] = target: T2, human estrogen receptor beta (Homo sapiens, UniProt Q92731); assay: Transactivation assay 2: human embryonic kidney 293 cells stably transfected with pERE2-ALP and human estrogen receptor beta; format: cell-based; settings: in the transactivation assays 1 and 2
T2 construct: expressed in transfected cells; host or cells: HEK293 (CRL-1573)

SMILES	selectivity for the estrogen receptor β-subtype over the estrogen receptor α-subtype [1]	selectivity for the estrogen receptor β-subtype over the estrogen receptor α-subtype [2]
CCCc1cc(C(N)=NO)c(-c2ccccc2C)c(-c2ccc(O)cc2)c1F [Example 96, 6′-fluoro-N′,4-dihydroxy-2′′-methyl-5′-propyl-[1,1′:2′,1′′-terphenyl]-3′-carboximidamide]	≥ 20	
NC(=NO)c1cc(Br)c(Cl)c(-c2ccc(O)cc2)c1-c1ccccc1 [Example 86, 5′-bromo-6′-chloro-N′,4-dihydroxy-[1,1′:2′,1′′-terphenyl]-3′-carboximidamide]	≥ 20	
NC(=NO)c1cc(C(F)(F)F)cc(-c2ccc(O)cc2)c1-c1ccccc1 [Example 43, N′,4-dihydroxy-5′-(trifluoromethyl)-[1,1′:2′,1′′-terphenyl]-3′-carboximidamide]	≥ 20	
CCCc1cc(C(N)=O)c(-c2ccccc2)c(-c2ccc(O)cc2)c1F [Example 95, 6′-fluoro-4-hydroxy-5′-propyl-[1,1′:2′,1′′-terphenyl]-3′-carboxamide]	≥ 20	
Cc1ccccc1-c1c(C(N)=NO)cc(C(F)(F)F)cc1-c1ccc(O)cc1 [Example 42, N′,4-dihydroxy-2′′-methyl-5′-(trifluoromethyl)-[1,1′:2′,1′′-terphenyl]-3′-carboximidamide]	≥ 20	
COc1ccc(F)cc1-c1c(C(N)=NO)cc(Cl)cc1-c1ccc(O)cc1 [Example 77, 5′-chloro-5′′-fluoro-N′,4-dihydroxy-2′′-methoxy-[1,1′:2′,1′′-terphenyl]-3′-carboximidamide]	≥ 20	
COc1ccc(F)cc1-c1c(C(N)=NO)cc(C(F)(F)F)cc1-c1ccc(O)cc1 [Example 40, 5′′-fluoro-N′,4-dihydroxy-2′′-methoxy-5′-(trifluoromethyl)-[1,1′:2′,1′′-terphenyl]-3′-carboximidamide]	≥ 20	
CCCc1cc(C(N)=NO)c(-c2cscc2C)c(-c2ccc(O)cc2)c1F [Example 97, 6-fluoro-N′,4′-dihydroxy-2-(4-methylthiophen-3-yl)-5-propyl-[1,1′-biphenyl]-3-carboximidamide]	≥ 20	
Cc1ccc(C)n1-c1c(C(N)=NO)cc(C(F)(F)F)cc1-c1ccc(O)cc1 [Example 72, 2-(2,5-dimethyl-1H-pyrrol-1-yl)-N′,4′-dihydroxy-5-(trifluoromethyl)-[1,1′-biphenyl]-3-carboximidamide]	≥ 20	
CCCc1cc(C(N)=NO)c(-c2cc(F)ccc2C)c(-c2ccc(O)cc2)c1F [Example 90, 5′′,6′-difluoro-N′,4-dihydroxy-2′′-methyl-5′-propyl-[1,1′:2′,1′′-terphenyl]-3′-carboximidamide]	≥ 20	
Cc1cc(C(N)=NO)c(-c2cc(F)ccc2C)c(-c2ccc(O)cc2)c1 [Example 11, 5″-fluoro-N′,4-dihydroxy-2″,5′-dimethyl-[1,1′:2′,1″-terphenyl]-3′-carboximidamide]	≥ 20	
NC(=NO)c1cc(Br)cc(-c2ccc(O)cc2)c1I [Example 10, 5-bromo-N′,4′-dihydroxy-2-iodo-[1,1′-biphenyl]-3-carboximidamide]	≥ 20	
CCCc1cc(C(N)=NO)c(-c2cc(F)ccc2OC)c(-c2ccc(O)cc2)c1F [Example 93, 5′′,6′-difluoro-N′,4-dihydroxy-2′′-methoxy-5′-propyl-[1,1′:2′,1′′-terphenyl]-3′-carboximidamide]	≥ 20	
Cc1noc(C)c1-c1c(C(N)=NO)cc(Cl)cc1-c1ccc(O)cc1 [Example 13, 5-chloro-2-(3,5-dimethylisoxazol-4-yl)-N′,4′-dihydroxy-[1,1′-biphenyl]-3-carboximidamide]	≥ 20	
CCCc1cc(C(N)=NO)c(-c2cc(F)cc(F)c2)c(-c2ccc(O)cc2)c1 [Example 48, 3′′,5′′-difluoro-N′,4-dihydroxy-5′-propyl-[1,1′:2′,1′′-terphenyl]-3′-carboximidamide]		≥ 20

Results, then the molecule that gave them:

selectivity for the estrogen receptor β-subtype over the estrogen receptor α-subtype [1]	selectivity for the estrogen receptor β-subtype over the estrogen receptor α-subtype [2]	SMILES
≥ 20		COc1ccc(C)cc1-c1c(C(N)=NO)cc(C(F)(F)F)cc1-c1ccc(O)cc1 [Example 163, N′,4-dihydroxy-2′′-methoxy-5′′-methyl-5′-(trifluoromethyl)-[1,1′:2′,1′′-terphenyl]-3′-carboximidamide]
≥ 20		COc1c(F)cc(F)cc1-c1c(C(N)=NO)cc(C(F)(F)F)cc1-c1ccc(O)cc1 [Example 116, 3′′,5′′-difluoro-N′,4-dihydroxy-2′′-methoxy-5′-(trifluoromethyl)-[1,1′:2′,1′′-terphenyl]-3′-carboximidamide]
≥ 20		COc1ccc(Cl)cc1-c1c(C(N)=NO)cccc1-c1ccc(O)cc1 [Example 177, 5′′-chloro-N′,4-dihydroxy-2′′-methoxy-[1,1′:2′,1′′-terphenyl]-3′-carboximidamide]
≥ 20		Cc1ccc(F)cc1-c1c(C(N)=NO)cc(C(F)(F)F)cc1-c1ccc(O)cc1F [Example 123, 2,5′′-difluoro-N′,4-dihydroxy-2′′-methyl-5′-(trifluoromethyl)-[1,1′:2′,1′′-terphenyl]-3′-carboximidamide]
≥ 20		NC(=NO)c1cc(C(F)(F)F)cc(-c2ccc(O)cc2F)c1-c1cc(F)cc(Cl)c1 [Example 132, 3′′-chloro-2,5′′-difluoro-N′,4-dihydroxy-5′-(trifluoromethyl)-[1,1′:2′,1′′-terphenyl]-3′-carboximidamide]
≥ 20		C=Cc1ccc(Cl)cc1-c1c(C(N)=NO)cc(C(F)(F)F)cc1-c1ccc(O)cc1 [Example 286, 5″-chloro-N′,4-dihydroxy-5′-(trifluoromethyl)-2″-vinyl-[1,1′:2′,1″-terphenyl]-3′-carboximidamide]
≥ 20		C=Cc1ccccc1-c1c(C(N)=NO)cc(C(F)(F)F)cc1-c1ccc(O)cc1 [Example 106, N′,4-dihydroxy-5′-(trifluoromethyl)-2′′-vinyl-[1,1′:2′,1′′-terphenyl]-3′-carboximidamide]
≥ 20		NC(=NO)c1cc(C(F)(F)F)cc(-c2ccc(O)cc2)c1-c1cc(F)cc(F)c1 [Example 111, 3′′,5′′-difluoro-N′,4-dihydroxy-5′-(trifluoromethyl)-[1,1′:2′,1′′-terphenyl]-3′-carboximidamide]
≥ 20		Cc1ccc(F)cc1-c1c(C(N)=NO)cc(Cl)c(Cl)c1-c1ccc(O)cc1 [Example 110, 5′,6′-dichloro-5′′-fluoro-N′,4-dihydroxy-2′′-methyl-[1,1′:2′,1′′-terphenyl]-3′-carboximidamide]
≥ 20		NC(=NO)c1cc(C(F)(F)F)cc(-c2ccc(O)cc2)c1-c1cc(F)cc(Cl)c1 [Example 114, 3′′-chloro-5′′-fluoro-N′,4-dihydroxy-5′-(trifluoromethyl)-[1,1′:2′,1′′-terphenyl]-3′-carboximidamide]
≥ 20		COc1ccc(Cl)cc1-c1c(C(N)=NO)cc(Cl)cc1-c1ccc(O)cc1 [Example 137, 5′,5′′-dichloro-N′,4-dihydroxy-2′′-methoxy-[1,1′:2′,1′′-terphenyl]-3′-carboximidamide]
≥ 20		CCCc1cc(C(N)=NO)c(-c2ccccc2)c(-c2ccc(O)cc2)c1F [Example 102, 6′-fluoro-N′,4-dihydroxy-5′-propyl-[1,1′:2′,1′′-terphenyl]-3′-carboximidamide]
≥ 20		COc1ccc(C)c(-c2c(C(N)=NO)cc(Br)cc2-c2ccc(O)cc2)c1 [Example 281, 5′-bromo-N′,4-dihydroxy-5″-methoxy-2″-methyl-[1,1′:2′,1″-terphenyl]-3′-carboximidamide]
≥ 20		COc1ccc(Cl)cc1-c1c(C(N)=NO)cc(C(F)(F)F)cc1-c1ccc(O)cc1F [Example 126, 5′′-chloro-2-fluoro-N′,4-dihydroxy-2′′-methoxy-5′-(trifluoromethyl)-[1,1′:2′,1′′-terphenyl]-3′-carboximidamide]
≥ 20		COc1ccc(Cl)cc1-c1c(C(N)=O)cc(C(F)(F)F)cc1-c1ccc(O)cc1F [Example 130, 5′′-chloro-2-fluoro-4-hydroxy-2′′-methoxy-5′-(trifluoromethyl)-[1,1′:2′,1′′-terphenyl]-3′-carboxamide]
≥ 20		Cc1c(F)cccc1-c1c(C(N)=NO)cc(C(F)(F)F)cc1-c1ccc(O)cc1 [Example 108, 3′′-fluoro-N′,4-dihydroxy-2′′-methyl-5′-(trifluoromethyl)-[1,1′:2′,1′′-terphenyl]-3′-carboximidamide]
≥ 20		NC(=NO)c1cc(C(F)(F)F)cc(-c2ccc(O)cc2)c1-c1cc(Cl)ccc1Cl [Example 175, 2′′,5′′-dichloro-N′,4-dihydroxy-5′-(trifluoromethyl)-[1,1′:2′,1′′-terphenyl]-3′-carboximidamide]
≥ 20		COc1c(F)cccc1-c1c(C(N)=NO)cc(C(F)(F)F)cc1-c1ccc(O)cc1 [Example 109, 3′′-fluoro-N′,4-dihydroxy-2′′-methoxy-5′-(trifluoromethyl)-[1,1′:2′,1′′-terphenyl]-3′-carboximidamide]
